Experimental data taken from PubChem BioAssay AID1347426 (Functional Genomics Laboratory (NCATS/FGL), 2020).
Out of some 31,000 sequences screened, about 1,400 (4.5%) were called active.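 The calls were made as follows: active = median seed-adjusted z-score above 1 or below -1; inactive = the rest.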 This is one part of the list.

Assay: Novel Modifiers of Survival Motor Neuron (SMN) Protein: Gene Identification via Genome-wide siRNA Screen;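 also: luminescence tracks full-length SMN protein made from the SMN2 reporter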
Details: HEK293T SMN2-luciferase reporter, siRNA knockdown, 72 h; actives lie on both sides
Outline: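 Steps: spot 1 pmol siRNA, add Lipofectamine RNAiMax in serum-free DMEM, seed HEK293T SMN2–luciferase reporter cells; incubate 72 h at 37 °C; add ONE-Glo; normalize luminescence to control siRNA, log10, MAD. Candidates: |MAD| > 1.0.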

| Sequence | median seed-adjusted z-score |
| --- | --- |
| ACUCAUCAAUGGAGGUGUATT against SLC25A18 | inactive: -0.0227 |
| GAAUCUAUGAGCUUCGAAATT against PSMB5 | active: -1.37 |
| CAAGGACCUUUACCGAACATT against PTPRJ | inactive: 0.0522 |
| AAGCCUACCAGGUCAAGUATT against EVI5L | inactive: 0.0497 |
| GGACUUUGCCUAUAGGUCATT against ZNF445 | inactive: -0.0752 |
| GGACCUUUAUCUUGUCGAATT against TMPRSS7 | inactive: 0.0269 |
| GCAGAAAUGCUUUCUAACATT against MAPK1 | inactive: 0 |
| UGCCAUUGCUGAAAUCCGATT against DUSP23 | inactive: -0.537 |
| CCAGAUGGAUGUACACUGUTT against PDE6C | inactive: 0.205 |
| GAAUAUGGGUUGGCCUAUATT against ZNF655 | inactive: -0.156 |
| GGAAUACUUCUGAGGGUAATT against ZNF561 | inactive: -0.00904 |
| CAUGCACUCCGCUUACAAATT against SNRNP70 | inactive: -0.405 |
| CCUCUGAACUGAGCUUAAATT against NANOS1 | inactive: 0.369 |
| GGAGUGUGCUUGUUUUCGATT against RRAGA | inactive: 0.511 |
| CUUUAUUUAUGACGACUUUTT against ZFP36 | inactive: 0.106 |
| AAGAAGAAGUGGACACUGATT against FGFRL1 | inactive: -0.111 |
| GAAAUACAGCUUAUGCAUATT against PTH | inactive: 0 |
| CCACUUACCUGCCCAUAUATT against SEC63 | inactive: -0.159 |
| GGAAGGAUGUGAUCCAGUATT against PREP | inactive: 0.0883 |
| GGAUAAGCAUGGGACAAGATT against OTC | inactive: 0.496 |
| CAGUGUAUCUGAACCUAUUTT against EFTUD1 | active: -1.39 |
| GUUUGACACUGGACUCUCATT against CRYAB | inactive: 0.354 |
| GUCCAUUGGUGUGAGUGCATT against HYAL3 | inactive: 0 |
| GGAGAAUUGACUACGCUUATT against KTN1 | inactive: -0.233 |
| GGGCUGGAAUUUUAAGCAATT against ALDH1L2 | inactive: 0 |
| CAGUGACCUGCUUCCCUCATT against PROP1 | inactive: 0.303 |
| ACAUCAUGUUGGACUGUGATT against B4GALT7 | inactive: -0.00294 |

Eleven successive entries already listed:

| Sequence | median seed-adjusted z-score |
| --- | --- |
| AAGAAGAAGUGGACACUGATT against FGFRL1 | inactive: -0.111 |
| GAAAUACAGCUUAUGCAUATT against PTH | inactive: 0 |
| CCACUUACCUGCCCAUAUATT against SEC63 | inactive: -0.159 |
| GGAAGGAUGUGAUCCAGUATT against PREP | inactive: 0.0883 |
| GGAUAAGCAUGGGACAAGATT against OTC | inactive: 0.496 |
| CAGUGUAUCUGAACCUAUUTT against EFTUD1 | active: -1.39 |
| GUUUGACACUGGACUCUCATT against CRYAB | inactive: 0.354 |
| GUCCAUUGGUGUGAGUGCATT against HYAL3 | inactive: 0 |
| GGAGAAUUGACUACGCUUATT against KTN1 | inactive: -0.233 |
| GGGCUGGAAUUUUAAGCAATT against ALDH1L2 | inactive: 0 |
| CAGUGACCUGCUUCCCUCATT against PROP1 | inactive: 0.303 |

Next records

| Sequence | median seed-adjusted z-score |
| --- | --- |
| CCAAUACAGUGGACAGUUATT against EMR1 | inactive: 0.255 |
| GCAUUACAGUACUUACGUATT against BTAF1 | active: -1.19 |
| GGAGCUUCAACUACAUUGATT against FAM12B | inactive: 0.312 |
| GCAAUGUAUAUGUUCAGUATT against ZRSR2 | inactive: 0.0222 |
| UGGUUGGUUUUAUACUAUATT against MYF6 | inactive: -0.0315 |
| GAUUUGCAUUGCAAUACAATT against MAL2 | inactive: -0.604 |
| GGCUGAUUUAUCUUCGAUATT against SLC7A11 | inactive: -0.182 |
| CGCAACGAGUUACAGAGGATT against GRINL1A | inactive: 0 |
| CCAAUGCUAAUCUAUCUAATT against MYH8 | inactive: 0.0648 |
| GUUUCUCAGUACUUCCAGATT against APOA2 | inactive: -0.297 |
| AGCUCUAUGUUUUCGUUAATT against DUSP22 | inactive: 0 |
| GCUCCGCAAGUGUAGAUGATT against ZNF431 | inactive: 0.00537 |
| GGCACGAAGACAUCGAUAATT against GCK | inactive: -0.286 |
| GGUACGAGCGAAACAUUGATT against F2 | inactive: 0.286 |
| CGAGCACACUAGUGAGUUUTT against MYBL1 | inactive: 0.344 |
| GGAAUAUCACAAUACACUGTT against FCGR1B | inactive: 0.2 |
| CCAUGAACAAGUUACGGCATT against NUMBL | inactive: -0.139 |
| GAGGAUCCAUGAUACAUGUTT against RHAG | inactive: -0.212 |
| GAAUCUGGAUAGUAUGCUUTT against BMPR1A | inactive: 0.797 |
| CCACUAAGAUGUACAUGAATT against DHX37 | inactive: -0.126 |
| CUAUGCGUUUGAAACCAAATT against GRK1 | inactive: 0.0807 |
| GGAACUCGUGCAUCUCCAATT against CD93 | inactive: -0.0879 |
| AGAUCCACCUCUCAACGCATT against CADM3 | inactive: 0 |
| GCGUGUAUCUGGUACGUCATT against KCNH8 | inactive: 0 |
| GGAGGACAAUCAGCAAGGATT against SPOCK2 | inactive: 0.967 |
| GGUUCGGUCUGAAAGGUGUTT against TIMP2 | inactive: 0.0444 |
| GCAGAAUACAUUCACGCUATT against CD22 | inactive: -0.448 |
